The source of these data is patent US6652921B2, “Wood containing fixed sorbic acid or sorbic acid salts” (Nutrinova Nutrition Specialties & Food Ingredients GmbH, priority 2000, dated 2003).

This data set in a line: Sorbic acid content in a layer about 2 mm deep of sprucewood boards after dipping in fixing solution and potassium sorbate solution. Conditions: per wood surface; for Amount of sorbic acid: Variant A (fixing solution first, then potassium sorbate 5% by weight); for Sorbic acid: Variant B (potassium sorbate solution first, then fixing solution).

Consider `[Ca+2].[Cl-].[Cl-]` [CaCl2], for which the “Amount of sorbic acid” value is listed as 24 g/m^2 (wood moisture 9.3%), 34 g/m^2 (wood moisture 18.8%) and 31 g/m^2 (wood moisture 19.4%). The Sorbic acid was 13 g/m^2 (wood moisture 9.3%), 14 g/m^2 (wood moisture 18.8%) and 11 g/m^2 (wood moisture 19.4%).

Turning to `O=C(O)CC(O)(CC(=O)O)C(=O)O` [Citric acid], the “Amount of sorbic acid” value reads like this: (wood moisture 9.3%) 37 g/m^2; (wood moisture 18.8%) 40 g/m^2; (wood moisture 19.4%) 38 g/m^2. The Sorbic acid reads like this: (wood moisture 9.3%) 13 g/m^2; (wood moisture 18.8%) 17 g/m^2; (wood moisture 19.4%) 18 g/m^2.

As to `CC(O)C(=O)O` (stereo not shown) [Lactic acid], the “Amount of sorbic acid” value by setting is: (wood moisture 9.3%) 25 g/m^2; (wood moisture 18.8%) 28 g/m^2; (wood moisture 19.4%) 33 g/m^2. Moreover, the Sorbic acid by setting is: (wood moisture 9.3%) 9 g/m^2; (wood moisture 18.8%) 12 g/m^2; (wood moisture 19.4%) 14 g/m^2.

`O=S(=O)([O-])[O-].[Mg+2]` [MgSO4]: the “Amount of sorbic acid” value (wood moisture 9.3%) is 23 g/m^2, the “Amount of sorbic acid” value (wood moisture 18.8%) is recorded as 23 g/m^2 and the “Amount of sorbic acid” value (wood moisture 19.4%) amounted to 23 g/m^2. This compound displayed a Sorbic acid (wood moisture 9.3%) of 14 g/m^2.
